{"source": "paper PMC6535728", "about": "(Therapeutic Advances in Medical Oncology, 2019)", "key": {"[1]": {"tested_on": "phospho-cKIT and phospho-Histone H3 in patient D primary cells", "settings": "1 μM, 6 h"}, "[2]": {"tested_on": "cKIT phosphorylation in GIST-T1", "settings": "GIST-T1, 1 h treatment, immunoblot"}, "[3]": {"tested_on": "cKIT phosphorylation in GIST-882", "settings": "GIST-882, 1 h treatment, immunoblot"}}, "data": [{"compound": "CNC(=O)c1ccccc1Sc1ccc2c(/C=C/c3ccccn3)n[nH]c2c1", "note": "[Axitinib, axitinib]", "values": [{"measurement": "Inhibition of phospho-Histone H3", "setting": "[1]", "result": "potently inhibited"}, {"measurement": "Inhibition of phospho-cKIT", "setting": "[1]", "result": "potently inhibited"}, {"measurement": "Inhibition of phospho-cKIT Y719, Y703, and Y823", "setting": "[2]", "result": "potently inhibit"}, {"measurement": "Inhibition of phospho-cKIT Y719, Y703, and Y823", "setting": "[3]", "result": "potently inhibit"}]}]}
